PubChem BioAssay AID1159578 – Peter MacCallum Cancer Centre | 2015

- Purpose: 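Knock-downs that alter how fast lymphatic endothelial cells migrate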 (primary screen)
- Cells: human lymphatic endothelial cells
- Reagents: siRNA pool against human genes, 40 nM
- Duration: 48 h after transfection
- Measurement: 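Cells stained with dye and imaged after a scratch; covered wound area and nuclei counted, duplicates averaged, migration set against mock wells and turned into a robust z-score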
- Direction: migration robust z-score: higher = faster migration into the scratch; migration relative to mock: higher = more scratch area covered than mock; nuclei per well: higher = more cells in the well
- Call rule: 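Migration changed when robust z exceeds 2 or falls below -2 and mean nuclei number is at least 3300; otherwise not called changed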
- Meaning of the calls: active = migration changed; inactive = no migration change, or too few cells
The whole screen tested about 18,000 reagents; below is an unselected part. In the full data, about 1,030 (5.7%) are marked active. 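Inactive calls also include pools with fewer than 3300 nuclei, whose migration was not assessed.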 Raw values vary from plate to plate and are shown uncorrected. A number with no mark means an inactive call.

gene | migration robust z-score | migration class with cell-count check | migration relative to mock | nuclei per well, duplicate mean
TRAF6 (TNF receptor associated factor 6) | 0.18 | migration z between -2 and 2; enough cells | 0.84 | 6100
PRSS57 (serine protease 57) | 1.04 | migration z between -2 and 2; enough cells | 1.01 | 4291
UVRAG (UV radiation resistance associated) | 0 | migration z between -2 and 2; enough cells | 0.8 | 6129
PTEN (phosphatase and tensin homolog) | 0.03 | migration z between -2 and 2; enough cells | 0.81 | 5947
MRPL36 (mitochondrial ribosomal protein L36) | -0.6 | migration z between -2 and 2; enough cells | 0.74 | 3636
SLC35A3 | -1.12 | migration z between -2 and 2; enough cells | 0.59 | 4523
EIF3A (eukaryotic translation initiation factor 3 subunit A) | -1.68 | migration z between -2 and 2; enough cells | 0.44 | 6434
ATF7 (activating transcription factor 7) | 0.88 | migration z between -2 and 2; enough cells | 0.98 | 4452
PSD4 (pleckstrin and Sec7 domain containing 4) | 0.3 | migration z between -2 and 2; enough cells | 0.97 | 7382
MESP2 (mesoderm posterior bHLH transcription factor 2) | -2.75 (active) | migration z below -2; enough cells | 0.17 | 3714
SAXO5 (stabilizer of axonemal microtubules 5) | -2.48 | under 3300 nuclei; migration not judged | 0.24 | 1980
FGF20 (fibroblast growth factor 20) | 0.26 | migration z between -2 and 2; enough cells | 0.86 | 4613
POLR1F (RNA polymerase I subunit F) | 0.42 | migration z between -2 and 2; enough cells | 1 | 6221
TCF7L1 (transcription factor 7 like 1) | -0.68 | migration z between -2 and 2; enough cells | 0.68 | 5158
RIPOR1 (RHO family interacting cell polarization regulator 1) | -1.09 | migration z between -2 and 2; enough cells | 0.6 | 5181
XRN2 (5'-3' exoribonuclease 2) | 0.08 | migration z between -2 and 2; enough cells | 0.9 | 6693
NAALADL2 (N-acetylated alpha-linked acidic dipeptidase like 2) | 0.88 | migration z between -2 and 2; enough cells | 0.98 | 5360
CCDC88B (coiled-coil and HOOK domain protein 88B) | -0.52 | migration z between -2 and 2; enough cells | 0.75 | 4648
CCNB3 (cyclin B3) | 0.98 | migration z between -2 and 2; enough cells | 1 | 5648
RPS6KC1 (ribosomal protein S6 kinase C1) | -0.78 | migration z between -2 and 2; enough cells | 0.66 | 4776
RMND5A (required for meiotic nuclear division 5 homolog A) | -1.81 | migration z between -2 and 2; enough cells | 0.42 | 4758
ZNF480 (zinc finger protein 480) | 0.98 | migration z between -2 and 2; enough cells | 1.14 | 6828
APIP (APAF1 interacting protein) | 1.17 | migration z between -2 and 2; enough cells | 1.19 | 5657
TAS2R50 (taste 2 receptor member 50) | 0.35 | migration z between -2 and 2; enough cells | 0.98 | 5556
NRF1 (nuclear respiratory factor 1) | 1.82 | migration z between -2 and 2; enough cells | 1.16 | 6199
STAG2 (STAG2 cohesin complex component) | 1.75 | migration z between -2 and 2; enough cells | 1.34 | 5868
ENTPD7 (ectonucleoside triphosphate diphosphohydrolase 7) | -0.46 | under 3300 nuclei; migration not judged | 0.72 | 3076
ARID3C (AT-rich interaction domain 3C) | -0.01 | migration z between -2 and 2; enough cells | 0.88 | 5114
TPST2 (tyrosylprotein sulfotransferase 2) | -3.92 (active) | migration z below -2; enough cells | 0.05 | 6066
C5 (complement C5) | 0.1 | migration z between -2 and 2; enough cells | 0.91 | 5690
LIM2 (lens intrinsic membrane protein 2) | -1.31 | migration z between -2 and 2; enough cells | 0.55 | 3838
TMEM106C (transmembrane protein 106C) | -1.54 | migration z between -2 and 2; enough cells | 0.48 | 6819
ERH (ERH mRNA splicing and mitosis factor) | -0.86 | migration z between -2 and 2; enough cells | 0.66 | 5470
RNF146 (ring finger protein 146) | 1.09 | migration z between -2 and 2; enough cells | 1.02 | 6406
PTPRK (protein tyrosine phosphatase receptor type K) | 0.52 | migration z between -2 and 2; enough cells | 0.9 | 4948
ERCC6L (ERCC excision repair 6 like DNA helicase) | -0.57 | migration z between -2 and 2; enough cells | 0.74 | 5508
ULK1 (unc-51 like autophagy activating kinase 1) | 1.29 | migration z between -2 and 2; enough cells | 1.06 | 5608
PRDM1 (PR/SET domain 1) | -0.44 | migration z between -2 and 2; enough cells | 0.72 | 4424
ZNF250 (zinc finger protein 250) | 0.6 | migration z between -2 and 2; enough cells | 1.04 | 5086
AMELX (amelogenin X-linked) | -0.71 | migration z between -2 and 2; enough cells | 0.7 | 5926
GALNT8 (polypeptide N-acetylgalactosaminyltransferase 8) | 0.18 | migration z between -2 and 2; enough cells | 0.84 | 5204
NECTIN3 (nectin cell adhesion molecule 3) | 0.73 | migration z between -2 and 2; enough cells | 0.94 | 5014
BMS1 (BMS1 ribosome biogenesis factor) | 0.5 | migration z between -2 and 2; enough cells | 1.02 | 3342
BRAT1 (BRCA1 associated ATM activator 1) | -0.21 | migration z between -2 and 2; enough cells | 0.83 | 6461
B9D1 (B9 domain containing 1) | -0.73 | migration z between -2 and 2; enough cells | 0.7 | 5002
PXK (PX domain containing serine/threonine kinase like) | -0.08 | migration z between -2 and 2; enough cells | 0.79 | 4696
HPF1 (histone PARylation factor 1) | 1.83 | migration z between -2 and 2; enough cells | 1.36 | 7276
TEAD4 (TEA domain transcription factor 4) | -0.72 | migration z between -2 and 2; enough cells | 0.66 | 5517
OR6F1 (olfactory receptor family 6 subfamily F member 1) | 0.6 | migration z between -2 and 2; enough cells | 1.04 | 4684
NRAP (nebulin related anchoring protein) | 1.62 | migration z between -2 and 2; enough cells | 1.31 | 5749
FGF2 (fibroblast growth factor 2) | -0.7 | migration z between -2 and 2; enough cells | 0.67 | 7039
ZNF713 (zinc finger protein 713) | 0.4 | migration z between -2 and 2; enough cells | 0.99 | 5524
COX15 (cytochrome c oxidase assembly factor COX15) | -0.26 | migration z between -2 and 2; enough cells | 0.76 | 5115
MRGPRG (MAS related GPR family member G) | -0.02 | migration z between -2 and 2; enough cells | 0.8 | 5830
PDE5A (phosphodiesterase 5A) | -0.89 | migration z between -2 and 2; enough cells | 0.66 | 5831
CRB2 (crumbs cell polarity complex component 2) | 0.39 | migration z between -2 and 2; enough cells | 0.99 | 5590
ZNF426 (zinc finger protein 426) | 1.31 | migration z between -2 and 2; enough cells | 1.23 | 6772

Entries above whose gene name begins with N or n:
gene | migration robust z-score | migration class with cell-count check | migration relative to mock | nuclei per well, duplicate mean
NAALADL2 (N-acetylated alpha-linked acidic dipeptidase like 2) | 0.88 | migration z between -2 and 2; enough cells | 0.98 | 5360
NRF1 (nuclear respiratory factor 1) | 1.82 | migration z between -2 and 2; enough cells | 1.16 | 6199
NECTIN3 (nectin cell adhesion molecule 3) | 0.73 | migration z between -2 and 2; enough cells | 0.94 | 5014
NRAP (nebulin related anchoring protein) | 1.62 | migration z between -2 and 2; enough cells | 1.31 | 5749
